Data as given in PubChem BioAssay AID504467 (National Center for Advancing Translational Sciences (NCATS), 2011).
Hit rate of the full screen: of about 330,000 compounds, about 7,700 (2.3%) were called active. The inconclusive results got no clear call from the source; some entries with a clear call stand among them for comparison. Calls follow the shape of the dose curve; as a rule, active = well fitted inhibition curve with a large enough effect; inconclusive = small, poorly fitted or top-dose-only effect, or effect the other way; inactive = flat fitted curve, though single readings scatter. Where the call is inconclusive, the potency comes from a doubtful curve fit.

Assay: qHTS screen for small molecules that inhibit ELG1-dependent DNA repair in human embryonic kidney (HEK293T) cells expressing luciferase-tagged ELG1; also: nearly all actives have a fitted effect of over 55% in size
Settings: HEK293T ELG1-luciferase reporter, luminescence, 16 h, DNA damage induced by 5-fluorouridine; activity change, negative = inhibition: at 46.1 µM (top of the series)
Outline: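 5-Fluorouridine DNA damage + compound/DMSO, 2,000 cells/well, 16 h, 37 °C/5% CO2. ONE-Glo, 30 min RT, luminescence. Readout = decrease in reporter signal.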
% is scaled to controls: 0 for no effect and ±100 for the full control effect; potency is read from the fitted curve at half-maximal effect.

SMILES | Potency | activity change, negative = inhibition
COc1cc2cc(C(c3nnnn3C(C)(C)C)N3CCc4ccccc4C3)c(=O)[nH]c2cc1OC (configuration not stated) | inconclusive: 13 µM [inhibitor, partial curve] | –
N#Cc1c(C(F)(F)F)cc(C2CC2)nc1N1CCCC1 | inconclusive: 11.6 µM [activator, partial curve, poor fit] | –
O=c1[nH]c(CN2CCN(c3ncccn3)CC2)nc2c(Br)cc(Br)cc12 | – | inactive: -2.05%
CCn1c2ccc(C)cc2c2nc3cc(C(=O)O)ccc3nc21 | inconclusive: 9.2 µM [activator, partial curve] | –
O=C(CN1CCN(c2ccccn2)CC1)Nc1cc(C(F)(F)F)ccc1Cl | inconclusive: 25.9 µM [inhibitor, single point] | –
CC(=O)NC(Cc1c[nH]c2ccccc12)C(=O)N1CCc2ccccc2C1 (configuration not stated) | – | inactive: -4.57%
CCN(CC)S(=O)(=O)c1ccc(N2CCOCC2)c(NC(=O)CCOc2ccccc2)c1 | inconclusive: 16.4 µM [inhibitor, single point] | –
Oc1ccc(-c2cn3cc(C(F)(F)F)ccc3n2)cc1 | inconclusive: 1.64 µM [activator, partial curve] | –
O=C(CSc1nc2ccccc2o1)N1CCOCC1 | inconclusive: 16.4 µM [activator, single point] | –
COc1ccc(-c2cn[nH]c2-c2ccc(OCc3ccc([N+](=O)[O-])cc3)cc2O)cc1OC | inconclusive: 6.51 µM [inhibitor, single point] | –
CCN(CC)c1cc(C(F)(F)F)nc(-c2ccccn2)n1 | inconclusive: 35.5 µM [inhibitor, single point] | –
CN(C)c1nc(NCc2ccccc2)nc(N/N=C/c2ccc(Br)cc2)n1 | – | inactive: -2.27%
FC(F)(F)c1ccc(Oc2ccc3c(C(F)(F)F)cc(C(F)(F)F)nc3n2)cc1 | – | inactive: 10.9%
O=C(N/N=C/c1ccc(O)cc1O)c1ccncc1 | inconclusive: 20.6 µM [inhibitor, single point] | –
O=C(Cc1ccccc1)Nc1ccnn1C1CCN(Cc2nccs2)CC1 | – | inactive: 4.46%
CC(C)(CNC(=O)C1c2ccccc2-c2ccccc21)N1CCOCC1 | – | inactive: -0.112%
Nc1ccc(C(=O)N2CCN(S(=O)(=O)c3ccc(Cl)s3)CC2)cc1[N+](=O)[O-] | inconclusive: 29.1 µM [inhibitor, single point] | –
CC(C)Oc1ccc2c(=O)c(-c3ccccc3)coc2c1 | inconclusive: 2.59 µM [activator, full curve] | –
CC(C)C(NC(=O)c1cccs1)C(=O)NC1=NCCS1 (configuration not stated) | – | inactive: 0.383%
Cc1cc(C2=NNC(=NC3CC3)SC2)c(C)n1-c1c(C)n(C)n(-c2ccccc2)c1=O | – | inactive: 15.3%
c1ccc(CCC2CCCCN2Cc2nc(-c3ccc4c(c3)OCO4)no2)nc1 (configuration not stated) | inconclusive: 20.6 µM [inhibitor, single point] | –
N#Cc1c(N)[nH]c(=S)c(C#N)c1-c1ccccc1 | – | inactive: 0%
COc1ccc(Cl)cc1NC(=O)Nc1cn(C)nc1C | inconclusive: 3.66 µM [inhibitor, single point] | –
COC(=O)c1ccc(NC(=O)c2ccc(OC(C)=O)c(OC)c2)cc1 | inconclusive: 16.4 µM [activator, partial curve] | –

SMILES | Potency | activity change, negative = inhibition
CCn1cc(C(=O)NCc2ccco2)c(=O)c2cc(F)c(N3CCN(C(=O)c4ccco4)CC3)cc21 | inconclusive: 20.6 µM [inhibitor, partial curve, poor fit] | –
CC1CCc2sc(C(=O)NC3CCCCC3)cc2C1 (configuration not stated) | inconclusive: 2.59 µM [activator, full curve] | –
Cc1ccc(C(=O)Nc2ccccc2-c2ccccc2)cc1S(=O)(=O)Nc1cccc(C)c1C | inconclusive: 23.1 µM [inhibitor, single point] | –
Cc1cccc(N2CCC(N=CN(C)C)=N2)c1 | inconclusive: 29.1 µM [activator, single point] | –
O=S(=O)(CCSc1nc2ccccc2s1)c1nc2ccccc2s1 | inconclusive: 18.4 µM [inhibitor, partial curve] | –
CC(=O)Nc1nc2ccc(-c3nc4ccccc4o3)cc2s1 | inconclusive: 2.59 µM [activator, partial curve] | –
Cc1ccc(NC(=O)c2cccc(N3C(=O)C4C5CCC(C5)C4C3=O)c2)c(C)c1 (configuration not stated) | inconclusive: 25.9 µM [inhibitor, partial curve] | –
CCOc1ccc(C(=O)COC(=O)CC)cc1 | – | inactive: 18.4%
Cc1cc(C)c2c(=O)[nH]c(SCC(=O)Nc3ccccc3)nc2n1 | inconclusive: 23.1 µM [activator, single point] | –
CCN(CC)CCNC(=S)Nc1ccc2nc(N3CCCC3)cc(C)c2c1 | inconclusive: 29.1 µM [activator, single point] | –
CCOC(=O)N1CCN(C(=O)c2cc3sccc3n2C)CC1 | – | inactive: 10.2%
S=C(NCCc1ccc(Cl)cc1)NC1CCCC1 | – | inactive: -16%
Cc1ccccc1-n1c(C)cc(/C=C2\NC(=O)NC2=O)c1C | inconclusive: 5.8 µM [activator, full curve] | –
COc1ccc(N(C)S(=O)(=O)c2cccc(C(=O)OC(C)C(=O)NC3CCCCC3C)c2)cc1 (configuration not stated) | inconclusive: 25.1 µM [inhibitor, single point] | –
CCC(=O)n1nc(NCc2ccccc2OC)nc1NCc1ccccc1OC | inconclusive: 20.6 µM [inhibitor, single point] | –
CCOC(=O)C(=CNc1cscc1S(=O)(=O)C(C)C)C(=O)OCC | – | inactive: 0%
COc1nc(N=C(N)N)nc2ccc(C)cc12 | – | inactive: -17.2%
Cc1nc2ncnn2c(C)c1CCC(=O)NCCc1ccccc1 | – | inactive: 0%
CC(C)COC(=O)NC1c2ccccc2Oc2ccccc21 | – | inactive: -1.84%
CCc1nnc(NC(=O)CSc2nc(C)c3c(c2C#N)CCCC3)s1 | inconclusive: 2.91 µM [activator, partial curve] | –
COc1ccc(NC(=O)N(C2CCCCC2)C(C)c2ccco2)c(OC)c1 (configuration not stated) | – | inactive: -4.3%
Cc1c(NC(=O)Nc2ccc(Cl)c(Cl)c2)c(=O)n(-c2ccccc2)n1C | inconclusive: 6.51 µM [inhibitor, partial curve] | –
O=C(Nc1ccc(Cl)c(S(=O)(=O)N2CCOCC2)c1)C1CCC1 | inconclusive: 14.6 µM [inhibitor, partial curve, poor fit] | –
O=[N+]([O-])/C=C1\C=CC=CN1Cc1ccc(Cl)cc1 | – | inactive: 0.955%

Molecules shown so far with bromine:
SMILES | Potency | activity change, negative = inhibition
O=c1[nH]c(CN2CCN(c3ncccn3)CC2)nc2c(Br)cc(Br)cc12 | – | inactive: -2.05%
CN(C)c1nc(NCc2ccccc2)nc(N/N=C/c2ccc(Br)cc2)n1 | – | inactive: -2.27%

Next part

SMILES | Potency | activity change, negative = inhibition
Cc1ccc2nc3ccc(N4CCN(C)CC4)nn3c(=O)c2c1 | inconclusive: 10.3 µM [activator, partial curve] | –
COc1ccc(-c2nn(-c3ccccc3)cc2/C=C/C(=O)NCCCn2ccnc2)cc1OC | active: 16.4 µM | –
COc1cc(/C=C2/SC(=S)N(Cc3ccccc3)C2=O)cc(OC)c1O | inconclusive: 25.9 µM [inhibitor, single point] | –
COC(=O)c1ccc(C(NC(=O)OCc2ccccc2)/C(C)=C/[C@@H](C)C(=O)NCc2ccc(-c3ccccc3)cc2)cc1 (some centres not stated) | inconclusive: 13 µM [inhibitor, partial curve, poor fit] | –
Cc1ccc(S(=O)(=O)N2CC(C)N(C(=O)N3CCOCC3)C2C)cc1 (configuration not stated) | – | inactive: 6.54%
COc1ccc(OC)c(NC(=O)NCCc2cccc(Cl)c2)c1 | inconclusive: 9.2 µM [inhibitor, partial curve] | –
CSc1nsc(SC)c1C(=O)N1CCN(S(=O)(=O)c2ccc(C)cc2)C1C (configuration not stated) | inconclusive: 18.4 µM [inhibitor, single point] | –
COc1cccc(/C=C/C(=C2/C(=O)N(c3ccccc3)N=C2C)c2ccc(Br)cc2)c1OC | – | inactive: -1.35%
COc1ccc(NC(=O)COc2ccccc2)c(OC)c1 | inconclusive: 16.4 µM [activator, partial curve] | –
COCc1cc(=O)n2[nH]c(-c3ccco3)cc2n1 | – | inactive: -1.65%
c1ccc2oc(NC3=NCN(CC4CCCO4)CN3)nc2c1 (configuration not stated) | inconclusive: 18.4 µM [activator, partial curve] | –
COCc1nc2sc3c(c2c(=O)[nH]1)CCCC3 | inconclusive: 23.1 µM [activator, single point] | –
CC(Sc1nnc2ccccn12)C(=O)Nc1ccc(Cl)cn1 (configuration not stated) | inconclusive: 32.6 µM [activator, partial curve, poor fit] | –
O=C(NC(=S)Nc1cccc([N+](=O)[O-])c1)c1ccco1 | inconclusive: 20.6 µM [activator, single point] | –
O=C(Nc1ccccc1N1CCOCC1)c1ccc(Cl)c(S(=O)(=O)N2CCCC2)c1 | inconclusive: 29.1 µM [inhibitor, single point] | –
COc1ccc(N2C(=O)CC(C#N)=C2N)cc1 | – | inactive: 1.2%
COc1cc(F)c(C2=CC(=O)C[C@H](c3ccc4c(c3)OCO4)C2)cc1F | active: 16.4 µM | –
CN(c1ccccc1)S(=O)(=O)c1ccc(C(=O)Nc2nnc(-c3ccco3)o2)cc1 | active: 16.4 µM | –
Cc1ccc(S(=O)(=O)N2CCC(C(=O)OCC(=O)N(Cc3ccccc3)C(C)(C)C)CC2)cc1C | inconclusive: 4.61 µM [inhibitor, single point] | –
Cc1ccc(-c2csc(NC(=O)CN3CCOCC3)n2)cc1C | – | inactive: 2.22%
CC(C)CN1CCN(CC#Cc2ccccc2)CC1CCO (configuration not stated) | – | inactive: -9.7%
O=C(Nc1nnc(C(F)(F)F)s1)c1cccnc1 | inconclusive: 5.17 µM [activator, partial curve] | –
CC(=O)c1sc(NC(=O)c2ccco2)nc1-c1ccccc1 | inconclusive: 11.6 µM [activator, partial curve] | –
COc1ccc2[nH]c(=O)c(CN(Cc3ccco3)C(c3nnnn3Cc3ccccc3)C(C)C)cc2c1 (configuration not stated) | inconclusive: 29.1 µM [inhibitor, single point] | –
